The values that follow come from publication PMC10476552.

Sequences of proteins named here, by UniProt entry; tags and fusion partners are left off.
UniProt Q9Y3D8: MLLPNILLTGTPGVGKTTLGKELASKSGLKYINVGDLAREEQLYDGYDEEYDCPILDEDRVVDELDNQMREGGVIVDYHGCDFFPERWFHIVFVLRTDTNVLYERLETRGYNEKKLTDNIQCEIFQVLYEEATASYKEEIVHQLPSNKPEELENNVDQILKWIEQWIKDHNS
UniProt Q8N726: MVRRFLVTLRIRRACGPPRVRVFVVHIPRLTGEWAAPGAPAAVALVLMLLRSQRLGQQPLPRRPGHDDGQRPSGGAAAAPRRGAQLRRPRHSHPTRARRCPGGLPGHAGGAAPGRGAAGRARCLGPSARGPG

Results are given in words; binding and its absence hold for the method and conditions named. Binding seen in cells or lysates may run through a third protein. Here binding means that the protein was enriched with, or labelled near, the bait; the list need not be complete.

The experiment concerns the target Flag-hCINAP (human coilin-interacting nuclear ATPase protein) (human) (UniProt Q9Y3D8). The experiment is described as follows: affinity purification with mass spectrometry; IP-mass spectrometry using HEK293T cells transfected with Flag-hCINAP.

As for “endogenous p14ARF (from UniProt Q8N726 1-132)”, the binding result is given as “binds”.
